# Assay results taken from US8216786B2, “Genetic polymorphisms associated with cardiovascular diseases, methods of detection and uses thereof” (Celera Corporation, priority 2008, dated 2012).
# This continues a long series; more values of the same kind are listed elsewhere.
# Test system: individuals who have previously had an MI
# Assay: CARE trial: effect of pravastatin vs placebo on coronary events (endpt1, rmi) by SNP genotype subgroup
# Format: in vivo, human
# Method: In Tables 21-22, the column labeled “Endpoint” indicates whether the endpoint that was analyzed was the primary endpoint of the CARE study (a composite endpoint of fatal coronary event or nonfatal MI, and identified as “endpt1”) or a composite endpoint of confirmed fatal or nonfatal MI (identified as “rmi”). […] As used herein, the term “benefit” (with respect to a preventive or therapeutic drug treatment) is defined as achieving a reduced risk for a disease that the drug is intended to treat or prevent (e.g., CVD such as CHD, particularly MI, or hypertension) by administering the drug treatment, compared with the risk for the disease in the absence of receiving the drug treatment (or receiving a placebo in lieu of the drug treatment) for the same genotype. […] J. […] (1996) New England Journal of Medicine 335: 1001-1009. […] A well-documented MI was one of the enrollment criteria for entry into the CARE study. Patients were enrolled in the CARE trial from 80 participating study centers. […] For the study of CARE described in this Example and shown in Tables 21-22, two endpoints were investigated: the primary endpoint of CARE (a composite endpoint of fatal coronary event or nonfatal MI, and identified as “endpt1” in the Endpoint column of Tables 21-22) and a composite endpoint of confirmed fatal or nonfatal MI (identified as “rmi” in the Endpoint column of Tables 21-22). […] HR stands for Hazard Ratio, which is a concept similar to Odds Ratio (OR). The HR in event-free survival analysis is the effect of an explanatory variable on the hazard or risk of an event. […] In Table 21, p-interaction values were calculated. An interaction (or effect modification) is formed when a third variable modifies the relation between an exposure and outcome. […] Genotype and drug interaction is present when the effect of statins (incidence rate of disease in statin-treated group, as compared to placebo) differs in patients with different genotypes.
# [1] = endpt1, hCV5478 rs1800574 TCF1, CC
# [2] = endpt1, hCV5478 rs1800574 TCF1, TC + TT
# [3] = endpt1, hCV529706 rs428785 ADAMTS1, CG + CC
# [4] = endpt1, hCV529706 rs428785 ADAMTS1, GG
# [5] = endpt1, hCV529710 rs402007 ADAMTS1, CG + CC
# [6] = endpt1, hCV529710 rs402007 ADAMTS1, GG
# [7] = endpt1, hCV549926 rs1057141 Tap1or, CT + CC
# [8] = endpt1, hCV549926 rs1057141 Tap1or, TT
# [9] = endpt1, hCV594695 rs45551939 SERPINA1, AT + AA
# [10] = endpt1, hCV594695 rs45551939 SERPINA1, TT
# [11] = endpt1, hCV598677 rs5370 EDN1, GG
# [12] = endpt1, hCV598677 rs5370 EDN1, TG + TT
# [13] = endpt1, hCV783138 rs6046 F10, AG + AA
# [14] = endpt1, hCV783138 rs6046 F10, GG
# [15] = endpt1, hCV783184 rs510335, TG + TT
# [16] = endpt1, hCV795441 rs401502 IL12RB1, CC
# [17] = endpt1, hCV795441 rs401502 IL12RB1, GC + GG
# [18] = endpt1, hCV2633049 rs2302006 CCL24, GT + GG
# [19] = endpt1, hCV2633049 rs2302006 CCL24, TT
# [20] = endpt1, hCV2658421 rs3176975 APOH, AC + AA
# [21] = endpt1, hCV2658421 rs3176975 APOH, CC
# [22] = endpt1, hCV2741051 rs2230806 ABCA1, CC
# [23] = endpt1, hCV2741051 rs2230806 ABCA1, TC + TT
# [24] = endpt1, hCV2741083 rs4149313 ABCA1, CT + CC
# [25] = endpt1, hCV2741083 rs4149313 ABCA1, TT
# [26] = endpt1, hCV2932115 rs5517 KLK1, CT + CC
# [27] = endpt1, hCV2932115 rs5517 KLK1, TT
# [28] = endpt1, hCV2983035 rs9527026 KL, AG + AA
# [29] = endpt1, hCV2983035 rs9527026 KL, GG
# [30] = endpt1, hCV3026189 rs11739136 KCNIP1, CC
# [31] = endpt1, hCV3026189 rs11739136 KCNIP1, TC + TT
# [32] = endpt1, hCV3068176 rs1801394 MTRR, AG + AA
# [33] = endpt1, hCV3068176 rs1801394 MTRR, GG
# [34] = endpt1, hCV3111721 rs33950747 NPHS1, CC
# [35] = endpt1, hCV3111721 rs33950747 NPHS1, TC + TT
# [36] = endpt1, hCV7441704 rs1800205 PPT1, AA
# [37] = endpt1, hCV7441704 rs1800205 PPT1, GA + GG
# [38] = endpt1, hCV7443062 rs897453 PEMT, CC
# [39] = endpt1, hCV7443062 rs897453 PEMT, TC + TT
# [40] = endpt1, hCV7475492 rs1138469 HSPG2, CC
# [41] = endpt1, hCV7475492 rs1138469 HSPG2, TC + TT
# [42] = endpt1, hCV7490135 rs1805082 NPC1, CT + CC
# [43] = endpt1, hCV7490135 rs1805082 NPC1, TT
# [44] = endpt1, hCV7494810 rs1058587 GDF15, CC
# [45] = endpt1, hCV7494810 rs1058587 GDF15, GC + GG
# [46] = endpt1, hCV7499212 rs1800127 LRP1, CC
# [47] = endpt1, hCV7499212 rs1800127 LRP1, TC + TT
# [48] = endpt1, hCV7514879 rs1800629, AG + AA
# [49] = endpt1, hCV7514879 rs1800629, GG
# [50] = endpt1, hCV7577801 rs11876 SLC9A3R2, CC
# [51] = endpt1, hCV7577801 rs11876 SLC9A3R2, TC + TT
structure (smiles),measurement,setting,value
CC[C@H](C)C(=O)O[C@H]1C[C@H](O)C=C2C=C[C@H](C)[C@H](CC[C@@H](O)C[C@@H](O)CC(=O)O)[C@H]21 [pravastatin],EVENTS (Pravastatin arm),[1],122
same,NONEVENT (Pravastatin arm),[1],1217
same,EVENTS (Pravastatin arm),[2],11
same,NONEVENT (Pravastatin arm),[2],75
same,EVENTS (Pravastatin arm),[3],55
same,NONEVENT (Pravastatin arm),[3],569
same,EVENTS (Pravastatin arm),[4],77
same,NONEVENT (Pravastatin arm),[4],719
same,EVENTS (Pravastatin arm),[5],57
same,NONEVENT (Pravastatin arm),[5],570
same,EVENTS (Pravastatin arm),[6],76
same,NONEVENT (Pravastatin arm),[6],720
same,EVENTS (Pravastatin arm),[7],33
same,NONEVENT (Pravastatin arm),[7],395
same,EVENTS (Pravastatin arm),[8],99
same,NONEVENT (Pravastatin arm),[8],894
same,EVENTS (Pravastatin arm),[9],19
same,NONEVENT (Pravastatin arm),[9],115
same,EVENTS (Pravastatin arm),[10],112
same,NONEVENT (Pravastatin arm),[10],1169
same,EVENTS (Pravastatin arm),[11],89
same,NONEVENT (Pravastatin arm),[11],774
same,EVENTS (Pravastatin arm),[12],44
same,NONEVENT (Pravastatin arm),[12],518
same,EVENTS (Pravastatin arm),[13],31
same,NONEVENT (Pravastatin arm),[13],258
same,EVENTS (Pravastatin arm),[14],101
same,NONEVENT (Pravastatin arm),[14],1033
same,EVENTS (Pravastatin arm),"endpt1, hCV783184 rs510335, GG",100
same,NONEVENT (Pravastatin arm),"endpt1, hCV783184 rs510335, GG",1008
same,EVENTS (Pravastatin arm),[15],32
same,NONEVENT (Pravastatin arm),[15],282
same,EVENTS (Pravastatin arm),[16],52
same,NONEVENT (Pravastatin arm),[16],596
same,EVENTS (Pravastatin arm),[17],81
same,NONEVENT (Pravastatin arm),[17],690
same,EVENTS (Pravastatin arm),[18],48
same,NONEVENT (Pravastatin arm),[18],440
same,EVENTS (Pravastatin arm),[19],85
same,NONEVENT (Pravastatin arm),[19],849
same,EVENTS (Pravastatin arm),[20],48
same,NONEVENT (Pravastatin arm),[20],522
same,EVENTS (Pravastatin arm),[21],84
same,NONEVENT (Pravastatin arm),[21],769
same,EVENTS (Pravastatin arm),[22],67
same,NONEVENT (Pravastatin arm),[22],647
same,EVENTS (Pravastatin arm),[23],66
same,NONEVENT (Pravastatin arm),[23],645
same,EVENTS (Pravastatin arm),[24],36
same,NONEVENT (Pravastatin arm),[24],316
same,EVENTS (Pravastatin arm),[25],97
same,NONEVENT (Pravastatin arm),[25],976
same,EVENTS (Pravastatin arm),[26],75
same,NONEVENT (Pravastatin arm),[26],591
same,EVENTS (Pravastatin arm),[27],58
same,NONEVENT (Pravastatin arm),[27],701
same,EVENTS (Pravastatin arm),[28],36
same,NONEVENT (Pravastatin arm),[28],387
same,EVENTS (Pravastatin arm),[29],97
same,NONEVENT (Pravastatin arm),[29],903
same,EVENTS (Pravastatin arm),[30],104
same,NONEVENT (Pravastatin arm),[30],1050
same,EVENTS (Pravastatin arm),[31],29
same,NONEVENT (Pravastatin arm),[31],241
same,EVENTS (Pravastatin arm),[32],100
same,NONEVENT (Pravastatin arm),[32],908
same,EVENTS (Pravastatin arm),[33],33
same,NONEVENT (Pravastatin arm),[33],384
same,EVENTS (Pravastatin arm),[34],121
same,NONEVENT (Pravastatin arm),[34],1098
same,EVENTS (Pravastatin arm),[35],11
same,NONEVENT (Pravastatin arm),[35],191
same,EVENTS (Pravastatin arm),[36],125
same,NONEVENT (Pravastatin arm),[36],1169
same,EVENTS (Pravastatin arm),[37],7
same,NONEVENT (Pravastatin arm),[37],118
same,EVENTS (Pravastatin arm),[38],31
same,NONEVENT (Pravastatin arm),[38],395
same,EVENTS (Pravastatin arm),[39],102
same,NONEVENT (Pravastatin arm),[39],897
same,EVENTS (Pravastatin arm),[40],109
same,NONEVENT (Pravastatin arm),[40],1132
same,EVENTS (Pravastatin arm),[41],23
same,NONEVENT (Pravastatin arm),[41],156
same,EVENTS (Pravastatin arm),[42],85
same,NONEVENT (Pravastatin arm),[42],924
same,EVENTS (Pravastatin arm),[43],48
same,NONEVENT (Pravastatin arm),[43],363
same,EVENTS (Pravastatin arm),[44],86
same,NONEVENT (Pravastatin arm),[44],730
same,EVENTS (Pravastatin arm),[45],46
same,NONEVENT (Pravastatin arm),[45],559
same,EVENTS (Pravastatin arm),[46],128
same,NONEVENT (Pravastatin arm),[46],1229
same,EVENTS (Pravastatin arm),[47],5
same,NONEVENT (Pravastatin arm),[47],63
same,EVENTS (Pravastatin arm),[48],33
same,NONEVENT (Pravastatin arm),[48],403
same,EVENTS (Pravastatin arm),[49],100
same,NONEVENT (Pravastatin arm),[49],885
same,EVENTS (Pravastatin arm),[50],77
same,NONEVENT (Pravastatin arm),[50],798
same,EVENTS (Pravastatin arm),[51],56
same,NONEVENT (Pravastatin arm),[51],491
same,EVENTS (Pravastatin arm),"endpt1, hCV7618856 rs1143675 ITGA4, CT + CC",4
